Source: PMC10986487, “Epidrugs: alternative chemotherapy targeting Theileria annulata schizont stage parasites” (Microbiology Spectrum, 2024)

Test system: T. annulata-infected bovine cells
Assay: Resazurin-based drug susceptibility assay, 2-fold serial dilutions, 48 hours
Assay type: cell-based
Settings: Theileria annulata, 0.019 µM to 10 µM, read-out: IC50 against T. annulata-infected cells
Experimental: In this study, we conducted a screening of 148 compounds from the Cayman epigenetics library against the asexual schizont stage of T. annulata-infected bovine cells to assess their potential anti-theilerial activity (Fig. 1A). The initial screening involved testing the compounds at a concentration of 10 µM, with BPQ serving as the internal control. […] Subsequently, we performed drug susceptibility assays on the selected 27 compounds to determine their 50% inhibitory concentration (IC50) values against T. annulata-infected cells. To do this, 2-fold serial dilutions ranging from 0.019 µM to 10 µM were prepared, and the percentage of cell death was assessed after 48 hours using resazurin-based assays.
Fig 1 Screening of epigenetic inhibitors for potential anti-theilerial activity in T. annulata-infected cells. (A) List of compounds and their functional classes used in this study. (B) Inhibition (%) of the hits (n = 27) with anti-theilerial activity when screened in T. annulata-infected cells, where the cut-off (--) was set at 50% inhibition. […] (E) Flow cytometry-based detection of annexin V-positive T. annulata-infected cells upon drug treatment for detection of early apoptosis.

IC50: 100 nM
Compound: O=C(CCCCCCC(=O)Nc1ccccc1)NO [SAHA]
